Reference: ChEMBL document CHEMBL4303122, “Identification of potential treatments for COVID-19 through artificial intelligence-enabled phenomic analysis of human cells infected with SARS-CoV-2” (2020)
The full ranking holds about 1,600 compounds; the median of “Hit score” is about 0.13, and the highest 2% start at about 0.46. Some of the results follow.

What follows are compounds tested on SARS-CoV-2 (assay: Antiviral activity against SARS-CoV-2 (USA-WA1/2020 strain) measured by imaging in HRCE cells at MOI 0.4 after 96 hrs (reported as hit score from 0-1 for on-disease vs off-disease activity: scores >0.6 considered hits)).
Type: functional, Homo sapiens

Q: For `C[N+]1(C)CCCC(OC(=O)C(O)(c2ccccc2)c2ccccc2)C1` (centres undefined) [MEPENZOLATE], which Hit score is on record?
A: 0.1869

Q: `O=C(CCCN1CCC(O)(c2ccc(Br)cc2)CC1)c1ccc(F)cc1` [BROMPERIDOL] was tested. Which Hit score did it give?
A: 0.1419

Q: For `CNCC[C@H](Oc1cccc2ccccc12)c1cccs1` [DULOXETINE], which Hit score is on record?
A: -0.001677

Q: `Cc1c(C(N)=O)cc([N+](=O)[O-])cc1[N+](=O)[O-]` [DINITOLMIDE] was tested. Which Hit score did it give?
A: 0.07869

Q: With `N=C(N)N` [GUANIDINE] as the compound, how does the Hit score read?
A: 0.2278

Q: With `CCN(CC)CCOC(=O)C1(c2ccccc2)CCCC1` as the compound, how does the Hit score read?
A: 0.1023

Q: Which Hit score does the source give for `O=P(O)(O)C(Sc1ccc(Cl)cc1)P(=O)(O)O` [TILUDRONIC ACID] here?
A: 0.04613

Q: Which Hit score does the source give for `NC(=O)OCCCc1ccccc1` [PHENPROBAMATE] here?
A: 0.1691

Q: `COc1cc(/C=C2\CCC/C(=C\c3ccc(O)c(OC)c3)C2=O)ccc1O` [CYCLOVALONE] was tested. Which Hit score did it give?
A: 0.231

Q: Which Hit score does the source give for `CN1[C@@H]2CC(O)C[C@H]1[C@@H]1O[C@@H]12` (some centres undefined) here?
A: 0.127

Q: `Cc1ncc([N+](=O)[O-])n1CC(O)CCl` (centres undefined) [ORNIDAZOLE] was tested. Which Hit score did it give?
A: 0.1218

Q: For `N#Cc1ccc2[nH]cc(CCCCN3CCN(c4ccc5oc(C(N)=O)cc5c4)CC3)c2c1` [VILAZODONE], which Hit score is on record?
A: 0.1122

Q: With `CN1C(C(=O)Nc2ccccn2)=C(O)c2sccc2S1(=O)=O` [TENOXICAM] as the compound, how does the Hit score read?
A: 0.3342

Q: Which Hit score does the source give for `Cc1cccc(C)c1NC(=O)C1CCCCN1C` (centres undefined) [MEPIVACAINE] here?
A: 0.09742

Q: `FC(F)(F)c1ccc(CNc2ccc(Cc3c[nH]c4ncc(Cl)cc34)cn2)cn1` [PEXIDARTINIB] was tested. Which Hit score did it give?
A: 0.2913

Q: With `CC(=O)OCC(=O)[C@@]12OC3(CCCC3)O[C@@H]1C[C@H]1[C@@H]3CCC4=CC(=O)C=C[C@]4(C)[C@@]3(F)[C@@H](O)C[C@@]12C` [AMCINONIDE] as the compound, how does the Hit score read?
A: -0.04507

Q: How did the Hit score turn out when `Cc1[nH]c(=O)c(C#N)cc1-c1ccncc1` [MILRINONE] was run?
A: 0.05941

Q: Which Hit score does the source give for `Cc1ccnc2c1NC(=O)c1cccnc1N2C1CC1` [NEVIRAPINE] here?
A: 0.1032

Q: Which Hit score does the source give for `Cc1ccc(/C(=C\CN2CCCC2)c2cccc(/C=C/C(=O)O)n2)cc1` [ACRIVASTINE] here?
A: 0.1912

Q: How did the Hit score turn out when `CNC(=O)c1cccc(NC(=O)N2CCC(Oc3ccccc3Cl)CC2)c1` was run?
A: 0.1005

Q: For `CC(C)(Oc1ccc(Cl)cc1)C(=O)O` [CLOFIBRIC ACID], which Hit score is on record?
A: 0.1996

Q: With `O=C(CCCN1CCC(n2c(=O)[nH]c3ccccc32)CC1)c1ccc(F)cc1` [BENPERIDOL] as the compound, how does the Hit score read?
A: 0.1627

Q: How did the Hit score turn out when `COc1ccc(CCNCC(O)COc2cccc(C)c2)cc1OC` (centres undefined) [BEVANTOLOL] was run?
A: 0.3675

Q: For `COc1cc(Nc2ncc(F)c(Nc3ccc4c(n3)NC(=O)C(C)(C)O4)n2)cc(OC)c1OC` [R-406], which Hit score is on record?
A: 0.1646

Q: `CN(C)CC/C=C1\c2ccccc2CSc2ccccc21` [DOTHIEPIN] was tested. Which Hit score did it give?
A: 0.2581

Q: For `N[C@@H]1c2cccnc2[C@H](OC(=O)N2CCC(n3c(=O)[nH]c4ncccc43)CC2)CC[C@H]1c1cccc(F)c1F` [RIMEGEPANT], which Hit score is on record?
A: 0.2662

Q: Which Hit score does the source give for `CN1CC(=O)N2[C@H](c3ccc4c(c3)OCO4)c3[nH]c4ccccc4c3C[C@@H]2C1=O` here?
A: 0.2898

Q: For `O=C(O)CCCN1C(=O)c2cccc3cccc(c23)C1=O`, which Hit score is on record?
A: 0.1776

Q: For `O=C(O)C1CSCN1` (centres undefined) [TIMONACIC], which Hit score is on record?
A: 0.2596

Q: `CSc1ccc(C(=O)c2[nH]c(=O)[nH]c2C)cc1` [ENOXIMONE] was tested. Which Hit score did it give?
A: 0.08738

Q: `O=C(CC1NCCCC1O)Cn1cnc2cc(Br)c(Cl)cc2c1=O` (centres undefined) [HALOFUGINONE] was tested. Which Hit score did it give?
A: 0.1357

Q: How did the Hit score turn out when `Cn1c(=O)c2c(ncn2CC(=O)O)n(C)c1=O` [ACEFYLLINE] was run?
A: 0.1779

Q: With `CCCCCCCCCCC[C@@H](C[C@@H]1OC(=O)[C@H]1CCCCCC)OC(=O)[C@H](CC(C)C)NC=O` [ORLISTAT] as the compound, how does the Hit score read?
A: 0.2509

Q: With `CC1(C)CCC(CN2CCN(c3ccc(C(=O)NS(=O)(=O)c4ccc(NCC5CCOCC5)c([N+](=O)[O-])c4)c(Oc4cnc5[nH]ccc5c4)c3)CC2)=C(c2ccc(Cl)cc2)C1` [VENETOCLAX] as the compound, how does the Hit score read?
A: 0.1129

Q: `COc1ccc2c(c1)N(C[C@H](C)CN(C)C)c1ccccc1S2` [LEVOMEPROMAZINE] was tested. Which Hit score did it give?
A: -0.08389

Q: How did the Hit score turn out when `C[C@@H]1CN([C@H]2CC[C@](C#N)(c3ccc(F)cc3)CC2)CC[C@]1(C(=O)O)c1ccccc1` [LEVOCABASTINE] was run?
A: 0.1177

Q: How did the Hit score turn out when `COc1ccccc1N1CCN(CC(O)COc2cccc3ccccc23)CC1` (centres undefined) [NAFTOPIDIL] was run?
A: 0.2462

Q: With `CN1CCCC(CC2c3ccccc3Sc3ccccc32)C1` (centres undefined) [METHIXENE] as the compound, how does the Hit score read?
A: 0.08132

Q: For `CCN1C(=O)NC(c2ccccc2)C1=O` (centres undefined) [ETHOTOIN], which Hit score is on record?
A: 0.2667

Q: `O=c1[nH]cnc2c([C@@H]3N[C@H](CO)[C@@H](O)[C@H]3O)c[nH]c12` [FORODESINE] was tested. Which Hit score did it give?
A: 0.3013

Q: With `CC(C)(C)C(=O)OCOP(=O)(COCCn1cnc2c(N)ncnc21)OCOC(=O)C(C)(C)C` [ADEFOVIR DIPIVOXIL] as the compound, how does the Hit score read?
A: 0.1661

Q: With `CCOc1ccc(Cc2cc([C@@H]3O[C@H](SC)[C@@H](O)[C@H](O)[C@H]3O)ccc2Cl)cc1` [SOTAGLIFLOZIN] as the compound, how does the Hit score read?
A: 0.2293

Q: For `CO/N=C(\C(=O)N[C@@H]1C(=O)N2C(C(=O)O)=C(CSc3nnnn3C)CS[C@H]12)c1csc(N)n1` [CEFMENOXIME], which Hit score is on record?
A: 0.1641

Q: `COc1cc(OC)c(C(=O)CCCN2CCCC2)c(OC)c1` [BUFLOMEDIL] was tested. Which Hit score did it give?
A: 0.1285

Q: How did the Hit score turn out when `CCc1cc2c(s1)-n1c(C)nnc1CN=C2c1ccccc1Cl` [ETIZOLAM] was run?
A: 0.2234

Q: With `CCC(=O)c1ccc(O)cc1` [PAROXYPROPIONE] as the compound, how does the Hit score read?
A: 0.1593

Q: `Cn1ccnc1S` [METHIMAZOLE] was tested. Which Hit score did it give?
A: -0.01566

Q: With `CS(=O)(=O)CCNCc1ccc(-c2ccc3ncnc(Nc4ccc(OCc5cccc(F)c5)c(Cl)c4)c3c2)o1` [LAPATINIB] as the compound, how does the Hit score read?
A: 0.09821

Q: For `CC(C)=CCC[C@](C)(O)[C@H]1CC[C@]2(C)[C@@H]1[C@H](O)C[C@@H]1[C@@]3(C)CC[C@H](O[C@@H]4O[C@H](CO)[C@@H](O)[C@H](O)[C@H]4O[C@@H]4O[C@H](CO)[C@@H](O)[C@H](O)[C@H]4O)C(C)(C)[C@@H]3CC[C@]12C`, which Hit score is on record?
A: 0.1968
